According to publication PMC6405930, “Conservation of the Amyloid Interactome Across Diverse Fibrillar Structures” (Scientific Reports, 2019):

Key:
[1] = In-solution digest of CSF, quantitative MS/MS (relative protein composition); parameters: species or system human; key to Identification status: CSF: *: Identified, but not quantified; —: Not identified in any of the samples; settings: original CSF; for Relative composition of CSF proteins: CSF: no fibrils; for Identification status: CSF: symbol cells
[2] = In-solution digest of plasma, quantitative MS/MS (relative protein composition); parameters: species or system human; settings: original plasma, no fibrils

Substance | Relative composition of CSF proteins: CSF [1] | Relative composition of plasma proteins: Plasma [2] | Identification status: CSF [1]
Apolipoprotein A-I: plasma/CSF protein bound to fibrils | 0.4 ± 0.1 % of total protein | 1.9 ± 0.1 % of total protein | 
Fibrinogen β chain: plasma protein bound to fibrils |  | 1.3 ± 0.1 % of total protein | 
Apolipoprotein B-100: plasma protein bound to fibrils |  | 0.2 ± 0.0 % of total protein | 
Dickkopf-related protein 3: CSF protein bound to fibrils | 0.3 ± 0.0 % of total protein |  | 
Complement C1s subcomponent: plasma/CSF protein bound to fibrils |  | 0.0 ± 0.0 % of total protein | *
Apolipoprotein D: plasma/CSF protein bound to fibrils | 0.3 ± 0.0 % of total protein | 0.0 ± 0.0 % of total protein | 
Gelsolin | 0.4 ± 0.0 % of total protein |  | 
Ig κ chain C region: CSF protein bound to fibrils | 1.0 ± 0.7 % of total protein |  | 
Apolipoprotein C-III: plasma protein bound to fibrils |  | 0.1 ± 0.1 % of total protein | 
Complement C3: plasma/CSF protein bound to fibrils | 0.1 ± 0.0 % of total protein | 0.4 ± 0.0 % of total protein | 
Clusterin: plasma/CSF protein bound to fibrils | 0.5 ± 0.0 % of total protein | 0.0 ± 0.0 % of total protein | 
Apolipoprotein A-II: plasma/CSF protein bound to fibrils | 0.0 ± 0.0 % of total protein | 0.2 ± 0.0 % of total protein | 
Ig γ-1 chain C region: plasma/CSF protein bound to fibrils | 8.5 ± 0.2 % of total protein | 6.7 ± 0.2 % of total protein | 
Apolipoprotein C-I: plasma protein bound to fibrils (TPDVSSALDKLKEFGNTLEDKARELISRIKQSELSAKMREWFSETFQKVKEKLKIDS; UniProt P02654 27-83, looked up) |  | 0.0 ± 0.0 % of total protein | 
α1-antitrypsin: plasma/CSF protein bound to fibrils | 0.7 ± 0.0 % of total protein | 1.6 ± 0.1 % of total protein | 
Fibronectin |  | 0.0 ± 0.0 % of total protein | *
Vitamin K-dependent protein S: plasma protein bound to fibrils |  | 0.0 ± 0.0 % of total protein | 
Transthyretin |  |  | *
Vitronectin: plasma/CSF protein bound to fibrils | below the detection limit | 0.2 % of total protein and 0.2 ± 0.0 % of total protein | *
Fibrinogen γ chain: plasma protein bound to fibrils |  | 0.6 ± 0.0 % of total protein | 

Values joined by “and” are separate entries in the source; they are usually repeats but may differ in a detail not shown here. Equal entries are not always repeated.
